In publication PMC9377749 (Molecular Cancer Therapeutics, 2022) one finds IC50 data, which are given here for one compound.

The subject of the assay is MDA-MB-231 cells. Briefly: In vitro 2D cytotoxicity. The class given is cell-based. The following applies: Homo sapiens, MDA-MB-231, 72 h.

Consider `COc1cccc2c1C(=O)c1c(O)c3c(c(O)c1C2=O)C[C@@](O)(C(=O)CO)C[C@@H]3O[C@H]1C[C@H](N)[C@H](O)[C@H](C)O1` [Dox, Doxorubicin, reference compound], for which the half-inhibitory concentration (IC50) (commonly the midpoint of a concentration-inhibition curve) is 310 nM.
